Test results: the supplement of paper PMC7666118
This is one part of the list.

Protein sequences, listed by entry. Tags and fused reporters are not part of them. Lines headed by an entry give the natural chain unless they say otherwise; changes in a name come on top.
UniProt P50395: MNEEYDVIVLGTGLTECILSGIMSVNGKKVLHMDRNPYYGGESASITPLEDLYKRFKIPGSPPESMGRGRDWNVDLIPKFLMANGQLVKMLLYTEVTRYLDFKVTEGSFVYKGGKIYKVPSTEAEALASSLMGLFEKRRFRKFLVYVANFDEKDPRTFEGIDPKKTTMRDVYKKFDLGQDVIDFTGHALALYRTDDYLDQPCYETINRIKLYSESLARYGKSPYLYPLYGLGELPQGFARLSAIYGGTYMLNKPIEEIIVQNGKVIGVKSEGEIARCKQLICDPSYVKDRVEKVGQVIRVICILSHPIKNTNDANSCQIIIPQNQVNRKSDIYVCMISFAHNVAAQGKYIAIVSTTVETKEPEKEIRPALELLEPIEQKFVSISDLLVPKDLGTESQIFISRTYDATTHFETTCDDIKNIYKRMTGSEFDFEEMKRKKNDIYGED
UniProt Q04760: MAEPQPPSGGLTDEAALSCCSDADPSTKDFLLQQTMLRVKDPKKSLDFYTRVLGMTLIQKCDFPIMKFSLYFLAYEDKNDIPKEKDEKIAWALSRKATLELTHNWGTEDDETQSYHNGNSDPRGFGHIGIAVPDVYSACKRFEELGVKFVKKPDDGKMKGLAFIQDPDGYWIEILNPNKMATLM
UniProt Q15011: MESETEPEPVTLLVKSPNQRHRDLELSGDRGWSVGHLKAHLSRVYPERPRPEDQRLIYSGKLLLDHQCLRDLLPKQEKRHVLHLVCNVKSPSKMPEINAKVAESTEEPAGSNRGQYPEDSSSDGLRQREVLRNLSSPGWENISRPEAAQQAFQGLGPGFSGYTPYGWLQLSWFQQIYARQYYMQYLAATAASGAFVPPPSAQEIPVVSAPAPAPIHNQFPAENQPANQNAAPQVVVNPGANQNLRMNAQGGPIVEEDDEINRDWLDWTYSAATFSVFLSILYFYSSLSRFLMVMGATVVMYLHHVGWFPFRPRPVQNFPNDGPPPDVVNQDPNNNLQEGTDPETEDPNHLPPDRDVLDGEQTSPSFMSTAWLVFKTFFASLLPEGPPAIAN
UniProt Q8N442: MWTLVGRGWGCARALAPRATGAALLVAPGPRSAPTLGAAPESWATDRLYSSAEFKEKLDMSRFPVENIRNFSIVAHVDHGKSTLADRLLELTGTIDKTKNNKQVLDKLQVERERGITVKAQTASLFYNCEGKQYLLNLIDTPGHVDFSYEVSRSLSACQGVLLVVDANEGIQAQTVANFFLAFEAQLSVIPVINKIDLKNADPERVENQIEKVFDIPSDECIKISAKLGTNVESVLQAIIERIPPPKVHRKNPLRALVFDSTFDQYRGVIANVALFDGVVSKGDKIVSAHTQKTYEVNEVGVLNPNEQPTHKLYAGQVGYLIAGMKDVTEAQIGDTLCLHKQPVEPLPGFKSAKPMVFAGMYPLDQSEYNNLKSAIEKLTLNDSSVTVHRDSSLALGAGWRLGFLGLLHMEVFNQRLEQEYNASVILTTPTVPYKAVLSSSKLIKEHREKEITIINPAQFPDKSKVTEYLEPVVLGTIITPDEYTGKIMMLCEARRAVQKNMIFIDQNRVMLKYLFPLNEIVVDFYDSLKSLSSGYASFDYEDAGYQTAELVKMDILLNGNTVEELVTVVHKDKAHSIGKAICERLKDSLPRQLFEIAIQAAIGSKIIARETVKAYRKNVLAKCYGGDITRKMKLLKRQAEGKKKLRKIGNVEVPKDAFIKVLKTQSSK
UniProt Q9UKD1: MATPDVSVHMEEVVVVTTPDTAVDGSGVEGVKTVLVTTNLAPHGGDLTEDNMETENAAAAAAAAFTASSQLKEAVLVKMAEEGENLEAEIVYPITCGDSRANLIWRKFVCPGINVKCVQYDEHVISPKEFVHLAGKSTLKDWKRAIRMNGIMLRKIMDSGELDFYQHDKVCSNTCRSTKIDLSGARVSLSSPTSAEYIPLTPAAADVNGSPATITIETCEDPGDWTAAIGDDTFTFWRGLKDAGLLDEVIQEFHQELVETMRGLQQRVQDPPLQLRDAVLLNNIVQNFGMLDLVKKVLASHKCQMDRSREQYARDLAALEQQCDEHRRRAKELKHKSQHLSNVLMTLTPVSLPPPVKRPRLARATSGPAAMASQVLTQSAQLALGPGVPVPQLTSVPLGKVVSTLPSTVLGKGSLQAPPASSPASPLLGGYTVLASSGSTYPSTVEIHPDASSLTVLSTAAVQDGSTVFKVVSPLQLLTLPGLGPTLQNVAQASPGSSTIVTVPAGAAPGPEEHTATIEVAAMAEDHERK
UniProt Q6Y7W6: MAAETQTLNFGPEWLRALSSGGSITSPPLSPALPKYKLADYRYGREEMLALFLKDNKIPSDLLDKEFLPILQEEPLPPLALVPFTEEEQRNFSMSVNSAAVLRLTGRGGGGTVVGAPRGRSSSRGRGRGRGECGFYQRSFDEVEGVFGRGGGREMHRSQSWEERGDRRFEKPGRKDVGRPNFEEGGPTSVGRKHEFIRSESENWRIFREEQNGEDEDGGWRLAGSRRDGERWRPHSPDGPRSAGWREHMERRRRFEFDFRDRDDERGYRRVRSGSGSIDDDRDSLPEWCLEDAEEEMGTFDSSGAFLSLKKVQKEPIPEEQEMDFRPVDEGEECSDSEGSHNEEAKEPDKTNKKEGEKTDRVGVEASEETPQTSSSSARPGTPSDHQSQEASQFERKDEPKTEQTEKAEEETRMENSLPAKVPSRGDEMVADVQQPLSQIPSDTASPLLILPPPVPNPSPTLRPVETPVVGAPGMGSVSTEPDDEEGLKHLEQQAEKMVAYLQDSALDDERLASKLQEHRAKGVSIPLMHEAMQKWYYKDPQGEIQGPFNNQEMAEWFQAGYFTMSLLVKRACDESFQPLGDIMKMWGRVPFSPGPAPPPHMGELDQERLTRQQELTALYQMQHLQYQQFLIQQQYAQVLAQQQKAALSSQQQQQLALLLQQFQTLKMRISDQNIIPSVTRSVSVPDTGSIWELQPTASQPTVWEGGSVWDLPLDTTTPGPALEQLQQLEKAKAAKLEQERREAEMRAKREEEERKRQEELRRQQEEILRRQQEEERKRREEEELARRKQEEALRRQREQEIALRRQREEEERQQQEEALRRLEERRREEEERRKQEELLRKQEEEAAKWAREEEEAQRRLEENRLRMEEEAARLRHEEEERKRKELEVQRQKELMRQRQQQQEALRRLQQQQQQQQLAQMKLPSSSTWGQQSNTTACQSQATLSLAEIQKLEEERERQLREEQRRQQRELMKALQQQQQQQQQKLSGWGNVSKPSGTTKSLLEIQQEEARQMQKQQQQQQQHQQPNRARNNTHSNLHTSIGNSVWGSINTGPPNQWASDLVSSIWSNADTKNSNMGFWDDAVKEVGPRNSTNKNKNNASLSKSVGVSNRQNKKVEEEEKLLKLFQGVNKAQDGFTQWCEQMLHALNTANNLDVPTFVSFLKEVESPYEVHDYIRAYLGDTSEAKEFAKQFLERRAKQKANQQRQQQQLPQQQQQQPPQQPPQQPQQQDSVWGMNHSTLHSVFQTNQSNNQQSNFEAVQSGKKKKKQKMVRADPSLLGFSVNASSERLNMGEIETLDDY
UniProt Q96IJ6: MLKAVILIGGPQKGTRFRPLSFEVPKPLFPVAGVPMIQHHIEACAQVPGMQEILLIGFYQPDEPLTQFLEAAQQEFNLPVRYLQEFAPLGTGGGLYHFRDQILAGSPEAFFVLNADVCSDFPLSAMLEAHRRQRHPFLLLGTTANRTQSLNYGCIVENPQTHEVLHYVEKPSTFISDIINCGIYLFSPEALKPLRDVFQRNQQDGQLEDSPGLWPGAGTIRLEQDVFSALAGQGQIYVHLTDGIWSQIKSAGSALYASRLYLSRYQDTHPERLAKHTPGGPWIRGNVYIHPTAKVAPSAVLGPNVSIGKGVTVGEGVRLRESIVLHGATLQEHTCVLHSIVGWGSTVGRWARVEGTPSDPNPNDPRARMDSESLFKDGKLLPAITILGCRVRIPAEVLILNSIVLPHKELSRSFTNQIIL
UniProt Q9HAV7: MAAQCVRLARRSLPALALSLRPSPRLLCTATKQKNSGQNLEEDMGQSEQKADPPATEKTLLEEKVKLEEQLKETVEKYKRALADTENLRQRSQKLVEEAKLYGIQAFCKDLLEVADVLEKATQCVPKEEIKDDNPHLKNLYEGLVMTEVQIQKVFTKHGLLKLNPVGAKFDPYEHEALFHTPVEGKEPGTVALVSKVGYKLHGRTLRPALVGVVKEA
UniProt Q9NXN4: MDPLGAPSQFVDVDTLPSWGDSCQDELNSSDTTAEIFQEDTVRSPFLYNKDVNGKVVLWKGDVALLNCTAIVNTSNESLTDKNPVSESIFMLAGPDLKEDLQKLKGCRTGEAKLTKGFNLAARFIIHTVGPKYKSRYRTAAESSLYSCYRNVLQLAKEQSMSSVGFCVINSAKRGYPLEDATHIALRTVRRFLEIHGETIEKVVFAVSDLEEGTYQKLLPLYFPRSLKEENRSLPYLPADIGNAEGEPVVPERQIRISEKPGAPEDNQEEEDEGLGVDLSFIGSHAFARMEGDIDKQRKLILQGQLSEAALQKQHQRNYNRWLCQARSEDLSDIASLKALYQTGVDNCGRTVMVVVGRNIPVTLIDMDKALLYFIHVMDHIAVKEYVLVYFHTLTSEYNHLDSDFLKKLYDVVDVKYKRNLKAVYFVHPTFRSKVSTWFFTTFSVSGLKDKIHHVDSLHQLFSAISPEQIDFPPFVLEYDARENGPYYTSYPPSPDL
UniProt O15379: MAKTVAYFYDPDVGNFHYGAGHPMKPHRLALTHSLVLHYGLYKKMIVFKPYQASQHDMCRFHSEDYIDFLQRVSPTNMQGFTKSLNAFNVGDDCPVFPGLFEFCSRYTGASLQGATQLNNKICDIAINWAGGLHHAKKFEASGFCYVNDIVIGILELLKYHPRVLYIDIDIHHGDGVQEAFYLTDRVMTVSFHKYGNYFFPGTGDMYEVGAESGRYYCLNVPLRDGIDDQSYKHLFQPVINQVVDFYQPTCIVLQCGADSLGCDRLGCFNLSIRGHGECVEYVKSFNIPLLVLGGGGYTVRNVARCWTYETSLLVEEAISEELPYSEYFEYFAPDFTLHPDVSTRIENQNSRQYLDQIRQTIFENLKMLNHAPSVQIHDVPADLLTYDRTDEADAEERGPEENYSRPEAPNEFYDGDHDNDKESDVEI
UniProt Q9HCL2: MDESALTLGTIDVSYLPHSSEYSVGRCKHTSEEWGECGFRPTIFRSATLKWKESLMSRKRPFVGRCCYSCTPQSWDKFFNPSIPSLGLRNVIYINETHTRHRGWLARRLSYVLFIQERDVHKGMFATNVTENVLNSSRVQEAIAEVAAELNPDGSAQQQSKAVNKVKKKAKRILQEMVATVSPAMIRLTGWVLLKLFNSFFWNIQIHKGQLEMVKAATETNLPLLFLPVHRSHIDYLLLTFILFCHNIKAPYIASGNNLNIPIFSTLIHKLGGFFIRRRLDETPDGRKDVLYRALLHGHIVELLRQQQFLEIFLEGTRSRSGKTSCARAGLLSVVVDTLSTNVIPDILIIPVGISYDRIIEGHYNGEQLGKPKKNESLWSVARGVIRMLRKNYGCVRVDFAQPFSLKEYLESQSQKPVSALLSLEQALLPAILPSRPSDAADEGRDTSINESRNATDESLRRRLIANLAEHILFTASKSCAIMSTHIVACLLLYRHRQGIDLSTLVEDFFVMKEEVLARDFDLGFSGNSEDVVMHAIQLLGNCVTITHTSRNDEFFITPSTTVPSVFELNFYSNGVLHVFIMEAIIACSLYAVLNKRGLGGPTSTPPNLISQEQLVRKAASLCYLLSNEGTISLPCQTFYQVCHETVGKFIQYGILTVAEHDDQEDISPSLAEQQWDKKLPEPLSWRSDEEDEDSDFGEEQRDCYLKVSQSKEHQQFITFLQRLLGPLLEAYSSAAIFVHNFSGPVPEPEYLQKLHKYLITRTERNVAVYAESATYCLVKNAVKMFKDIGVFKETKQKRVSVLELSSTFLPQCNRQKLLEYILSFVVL
UniProt Q8N3Z3: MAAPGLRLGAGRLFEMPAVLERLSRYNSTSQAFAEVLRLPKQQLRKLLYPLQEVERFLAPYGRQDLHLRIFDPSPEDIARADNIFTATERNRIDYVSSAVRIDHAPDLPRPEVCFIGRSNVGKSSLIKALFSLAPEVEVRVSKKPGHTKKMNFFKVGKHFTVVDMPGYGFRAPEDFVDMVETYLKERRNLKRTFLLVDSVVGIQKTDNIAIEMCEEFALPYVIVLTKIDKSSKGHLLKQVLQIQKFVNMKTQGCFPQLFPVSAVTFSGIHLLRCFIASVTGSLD
UniProt Q9NWT6: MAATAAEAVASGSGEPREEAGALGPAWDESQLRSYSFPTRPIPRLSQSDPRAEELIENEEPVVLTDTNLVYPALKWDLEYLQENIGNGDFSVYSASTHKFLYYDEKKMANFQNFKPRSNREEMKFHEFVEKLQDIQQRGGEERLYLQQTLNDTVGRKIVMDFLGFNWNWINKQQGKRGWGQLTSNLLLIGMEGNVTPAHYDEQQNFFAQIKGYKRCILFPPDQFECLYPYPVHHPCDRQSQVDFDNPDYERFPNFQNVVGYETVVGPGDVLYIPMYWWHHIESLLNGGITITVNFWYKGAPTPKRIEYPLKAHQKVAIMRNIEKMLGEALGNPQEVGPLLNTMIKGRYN

Compound: COc1ccc(Cn2ccc3ccc(C(=O)NO)cc32)cc1
Test: dose-dependent thermal stabilisation call (2D-TPP, DLPTP, 10% FDR) (binary (1 = stabilised)); higher = stabilised by the compound
Conditions: system: HL-60 intact cells; concentration range 0.04-10 µM

GSK3B (UniProt P49841)
dose-dependent thermal stabilisation call: inactive: 0

GEMIN7 (UniProt Q9H840)
dose-dependent thermal stabilisation call: inactive: 0

HIP1R (UniProt O75146)
dose-dependent thermal stabilisation call: inactive: 0

GMEB1 (UniProt Q9Y692)
dose-dependent thermal stabilisation call: inactive: 0

GDI2 (UniProt P50395)
dose-dependent thermal stabilisation call: inactive: 0

HCG_21078
dose-dependent thermal stabilisation call: inactive: 0

GCC1 (UniProt Q96CN9)
dose-dependent thermal stabilisation call: inactive: 0

GLO1 (UniProt Q04760)
dose-dependent thermal stabilisation call: inactive: 0

GOLT1B (UniProt Q9Y3E0)
dose-dependent thermal stabilisation call: inactive: 0

GSE1 (UniProt Q14687)
dose-dependent thermal stabilisation call: inactive: 0

HERPUD1 (UniProt Q15011)
dose-dependent thermal stabilisation call: inactive: 0

H2AFY (UniProt O75367)
dose-dependent thermal stabilisation call: active: 1

GUF1 (UniProt Q8N442)
dose-dependent thermal stabilisation call: inactive: 0

GTF3C2 (UniProt Q8WUA4)
dose-dependent thermal stabilisation call: inactive: 0

GMEB2 (UniProt Q9UKD1)
dose-dependent thermal stabilisation call: inactive: 0

GINS3 (UniProt Q9BRX5)
dose-dependent thermal stabilisation call: inactive: 0

GIGYF2 (UniProt Q6Y7W6)
dose-dependent thermal stabilisation call: inactive: 0

GMPS (UniProt P49915)
dose-dependent thermal stabilisation call: inactive: 0

GSTO1 (UniProt P78417)
dose-dependent thermal stabilisation call: active: 1

GGA3 (UniProt Q9NZ52)
dose-dependent thermal stabilisation call: inactive: 0

GINS2 (UniProt Q9Y248)
dose-dependent thermal stabilisation call: inactive: 0

GNB1 (UniProt P62873)
dose-dependent thermal stabilisation call: inactive: 0

GTSF1 (UniProt Q8WW33)
dose-dependent thermal stabilisation call: inactive: 0

GTF3C1 (UniProt Q12789)
dose-dependent thermal stabilisation call: inactive: 0

GMPPA (UniProt Q96IJ6)
dose-dependent thermal stabilisation call: inactive: 0

H2AFZ (UniProt P0C0S5)
dose-dependent thermal stabilisation call: inactive: 0

HERC1 (UniProt Q15751)
dose-dependent thermal stabilisation call: inactive: 0

GFM1 (UniProt Q96RP9)
dose-dependent thermal stabilisation call: inactive: 0

GNL3 (UniProt Q9BVP2)
dose-dependent thermal stabilisation call: inactive: 0

GRPEL2 (UniProt Q8TAA5)
dose-dependent thermal stabilisation call: inactive: 0

GINS4 (UniProt Q9BRT9)
dose-dependent thermal stabilisation call: inactive: 0

GLT25D1 (UniProt Q8NBJ5)
dose-dependent thermal stabilisation call: inactive: 0

GRPEL1 (UniProt Q9HAV7)
dose-dependent thermal stabilisation call: inactive: 0

HARS (UniProt P12081)
dose-dependent thermal stabilisation call: inactive: 0

GCLM (UniProt P48507)
dose-dependent thermal stabilisation call: inactive: 0

HDGF2
dose-dependent thermal stabilisation call: inactive: 0

GDAP2 (UniProt Q9NXN4)
dose-dependent thermal stabilisation call: inactive: 0

HDAC4 (UniProt P56524)
dose-dependent thermal stabilisation call: inactive: 0

HAT1 (UniProt O14929)
dose-dependent thermal stabilisation call: inactive: 0

HLA-C (UniProt P10321)
dose-dependent thermal stabilisation call: inactive: 0

HLCS (UniProt P50747)
dose-dependent thermal stabilisation call: inactive: 0

HCG_2004593
dose-dependent thermal stabilisation call: inactive: 0

HDAC3 (UniProt O15379)
dose-dependent thermal stabilisation call: inactive: 0

GTF2E1 (UniProt P29083)
dose-dependent thermal stabilisation call: inactive: 0

GTPBP1 (UniProt O00178)
dose-dependent thermal stabilisation call: inactive: 0

HDAC2 (UniProt Q92769)
dose-dependent thermal stabilisation call: inactive: 0

GFPT1 (UniProt Q06210)
dose-dependent thermal stabilisation call: inactive: 0

GTF3A (UniProt Q92664)
dose-dependent thermal stabilisation call: inactive: 0

HCG_20857
dose-dependent thermal stabilisation call: inactive: 0

GNB4 (UniProt Q9HAV0)
dose-dependent thermal stabilisation call: inactive: 0

GNB1L (UniProt Q9BYB4)
dose-dependent thermal stabilisation call: inactive: 0

GNA11 (UniProt P29992)
dose-dependent thermal stabilisation call: inactive: 0

GYG1 (UniProt P46976)
dose-dependent thermal stabilisation call: inactive: 0

HEBP2 (UniProt Q9Y5Z4)
dose-dependent thermal stabilisation call: inactive: 0

GPAM (UniProt Q9HCL2)
dose-dependent thermal stabilisation call: inactive: 0

HEATR3 (UniProt Q7Z4Q2)
dose-dependent thermal stabilisation call: inactive: 0

GDF1 (UniProt P27539)
dose-dependent thermal stabilisation call: inactive: 0

GGT5 (UniProt P36269)
dose-dependent thermal stabilisation call: inactive: 0

HINT3 (UniProt Q9NQE9)
dose-dependent thermal stabilisation call: inactive: 0

GPR84 (UniProt Q9NQS5)
dose-dependent thermal stabilisation call: inactive: 0

GNPDA2 (UniProt Q8TDQ7)
dose-dependent thermal stabilisation call: inactive: 0

HBB (UniProt P68871)
dose-dependent thermal stabilisation call: inactive: 0

GPBP1L1 (UniProt Q9HC44)
dose-dependent thermal stabilisation call: inactive: 0

GCNT1 (UniProt Q02742)
dose-dependent thermal stabilisation call: inactive: 0

HINT2 (UniProt Q9BX68)
dose-dependent thermal stabilisation call: inactive: 0

GZMA (UniProt P12544)
dose-dependent thermal stabilisation call: inactive: 0

GRB2 (UniProt P62993)
dose-dependent thermal stabilisation call: inactive: 0

GNAI1 (UniProt P63096)
dose-dependent thermal stabilisation call: inactive: 0

GINS1 (UniProt Q14691)
dose-dependent thermal stabilisation call: inactive: 0

GUSB (UniProt P08236)
dose-dependent thermal stabilisation call: inactive: 0

GRB10 (UniProt Q13322)
dose-dependent thermal stabilisation call: inactive: 0

GTPBP8 (UniProt Q8N3Z3)
dose-dependent thermal stabilisation call: inactive: 0

HIF1AN (UniProt Q9NWT6)
dose-dependent thermal stabilisation call: inactive: 0

GNB2 (UniProt P62879)
dose-dependent thermal stabilisation call: inactive: 0

GORASP2 (UniProt Q9H8Y8)
dose-dependent thermal stabilisation call: inactive: 0

HCG_18290
dose-dependent thermal stabilisation call: inactive: 0
